Measured values taken from PMC7819943, “Rice protein-binding microarrays: a tool to detect cis-acting elements near promoter regions in rice”.
This is one part of the list.

The sequences below were run against T1, OsSMF1 (Oryza sativa, UniProt Q6ZLB0 1-436) (assay: protein-binding microarray (RPBM); PBS, 2% BSA, 51.3 ng/ul salmon testes DNA, 50 uM zinc acetate, 200 nM TF, 25 C, 1 h; high values mean tight binding). Conditions: protein: recombinant; tags: N-terminal polyhistidine and DsRed monomer fusion (pET32a); chain copies: 2; label: CyDye5-dUTP incorporated in the synthesized complementary strand; 3' TTTTT single-stranded linker to array surface; dsDNA, one strand shown.
T1 sequence: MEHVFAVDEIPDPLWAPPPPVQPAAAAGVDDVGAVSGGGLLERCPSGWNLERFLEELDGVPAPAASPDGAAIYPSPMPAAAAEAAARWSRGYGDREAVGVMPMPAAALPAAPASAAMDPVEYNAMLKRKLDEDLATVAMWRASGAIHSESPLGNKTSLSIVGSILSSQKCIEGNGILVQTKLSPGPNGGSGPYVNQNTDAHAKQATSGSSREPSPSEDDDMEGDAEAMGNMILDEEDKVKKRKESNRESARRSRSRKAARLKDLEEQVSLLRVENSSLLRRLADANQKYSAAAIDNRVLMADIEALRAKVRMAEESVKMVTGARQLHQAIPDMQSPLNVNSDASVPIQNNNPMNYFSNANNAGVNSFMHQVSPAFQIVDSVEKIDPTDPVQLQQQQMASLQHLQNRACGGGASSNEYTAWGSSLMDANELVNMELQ
Method in brief: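 Per-feature fluorescence intensity (arbitrary units), read on an Axon 4000B scanner, is the binding signal. Transcription factors carrying an N-terminal polyhistidine tag and DsRed fusion were expressed in E. coli BL21-CodonPlus and purified on Ni–NTA. A custom Agilent array, made double-stranded by primer extension with Cy5-dUTP and blocked with 2% BSA, was incubated with 200 nM protein in PBS, 2% BSA, salmon testes DNA and 50 µM zinc acetate at 25 °C for 1 h and then washed.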

Sequence | binding signal
TAGTGGGGTGGCTTTGTCTGACATGGCAATTTGACCCAAGCGGAGTCACCTAGTGCAG | 8430 fluorescence intensity (a.u.)
TCGTCCCGCTCGGGCGACGTGGGCACTCTCGTGTCGTCGCCGGAGTCACCTAGTGCAG | 3790 fluorescence intensity (a.u.)
TTAATTATTTTGCTGACATGATTTGTTTTCATTTCGTTGACGGAGTCACCTAGTGCAG | 3290 fluorescence intensity (a.u.)
CAGTCCTCACACGTTCTCTTCCTCTCTCTCTCTCTCACTCCGGAGTCACCTAGTGCAG | 3470 fluorescence intensity (a.u.)
GGTTCTGGATAGCCATACAGCCAGCTTGTTCTGATAGCAACGGAGTCACCTAGTGCAG | 3270 fluorescence intensity (a.u.)
CCTCAATCCCCTCCTGTTGCATGCTAGCTGCTGTACACCACGGAGTCACCTAGTGCAG | 3160 fluorescence intensity (a.u.)
AGCGCCACCTCGACGGCGCCCAGCACCACCGCGCCCGCGCCGGAGTCACCTAGTGCAG | 4140 fluorescence intensity (a.u.)
GACTATCGTATCATGGAACGATGTGTCACTGTCACCAAATCGGAGTCACCTAGTGCAG | 6470 fluorescence intensity (a.u.)
CAGTGGAGGGTTGTGATTGGTTATGAAGAGAATGTTGGTGCGGAGTCACCTAGTGCAG | 3220 fluorescence intensity (a.u.)
ATACTATTAATACCTGATCCCACCTGTCATACACACGTTACGGAGTCACCTAGTGCAG | 4370 fluorescence intensity (a.u.)
CAAAACACACGTCAGTTTATAATCATAGTTTCGGCCTACTCGGAGTCACCTAGTGCAG | 10100 fluorescence intensity (a.u.)
GTGTGTGAAAGCATGGCTAACTCGTCTGGTCAAAGGCAAACGGAGTCACCTAGTGCAG | 27000 fluorescence intensity (a.u.)
GTGGAGAAACCAAACCTCTAATGATTCATGCTGCCACAAACGGAGTCACCTAGTGCAG | 3450 fluorescence intensity (a.u.)
GTAACCAGGAAATTGCTGAGATGAGTCTTCCTCTTACTCCCGGAGTCACCTAGTGCAG | 3210 fluorescence intensity (a.u.)
CTCGAAGATGGTGGCCCGAGGTGGAGCCCATATCATCATGCGGAGTCACCTAGTGCAG | 3900 fluorescence intensity (a.u.)
TACCGCGCGGCGATCGCCGAGTTCGTGGCGACGCTGCTGTCGGAGTCACCTAGTGCAG | 3230 fluorescence intensity (a.u.)
TTAATGTTAGCTAGGTTTAATTAAACCAGTTTGATATTATCGGAGTCACCTAGTGCAG | 36600 fluorescence intensity (a.u.)
CATTCGACGCGCACGTCGTATACGCACGCCGCCATGTCAGCGGAGTCACCTAGTGCAG | 9550 fluorescence intensity (a.u.)
TAGCATCACATTGTCAAGTCATGGTGCAATTATGCTTATACGGAGTCACCTAGTGCAG | 27300 fluorescence intensity (a.u.)
GAGACTCTGCCTTCCCCGTCTCTGATACTGTATGTGTTGCCGGAGTCACCTAGTGCAG | 17000 fluorescence intensity (a.u.)
GTTCCTTCGGCCAACTCATGTCCCTTCTTCTCCACGTCGTCGGAGTCACCTAGTGCAG | 6940 fluorescence intensity (a.u.)

Sequence | binding signal
TCGCGAAATAGCAATGACCACAACACGCGACGTGTCCTGACGGAGTCACCTAGTGCAG | 3320 fluorescence intensity (a.u.)
GGCTAATATTTTAGTGACGTGATTTTATTCAGCCGTCAGGCGGAGTCACCTAGTGCAG | 3510 fluorescence intensity (a.u.)
GAGAAATACCGAAAATACTGGTTTGACACGCACCAGGATTCGGAGTCACCTAGTGCAG | 4110 fluorescence intensity (a.u.)
GCGATTTCACATTCCCATTTGGTAGCGAAGTGATAAATCGCGGAGTCACCTAGTGCAG | 3300 fluorescence intensity (a.u.)
CTTCTTCGATTCCCACGTGGCACACCGACGGCGCGATCAACGGAGTCACCTAGTGCAG | 13800 fluorescence intensity (a.u.)
TCGGTGACAAGGTTGCCAGGTGGACGGTCAAATCGTTGCGCGGAGTCACCTAGTGCAG | 4420 fluorescence intensity (a.u.)
TTGTCATTGTCGTCGAAGTCCTCCTCCTCTGACAGTGGGTCGGAGTCACCTAGTGCAG | 3140 fluorescence intensity (a.u.)
TTGACCTGTGCATCTTGCACCGTCATCCCAGCAATGCAAACGGAGTCACCTAGTGCAG | 5680 fluorescence intensity (a.u.)
GAATATGAATCACCTACTATCGATAATGTGGTAGGGATGACGGAGTCACCTAGTGCAG | 5070 fluorescence intensity (a.u.)
TTATTTTGTGCAGGTTGTATAGGAGTCGCCACGTGCTGAACGGAGTCACCTAGTGCAG | 4060 fluorescence intensity (a.u.)
CTCTTCAGCCGGTCGTCAATGATACAACCAGGTCACGCATCGGAGTCACCTAGTGCAG | 3950 fluorescence intensity (a.u.)
TACGGCGGCGGGAGGACGGCGAGGGTGATGACGACGTACGCGGAGTCACCTAGTGCAG | 4140 fluorescence intensity (a.u.)
GTTTTATCGGTAACCATATTTGTATGGTAATTTCCGTTAACGGAGTCACCTAGTGCAG | 3230 fluorescence intensity (a.u.)
GAGCTGCTTGCTCCGGCGAATGTATCAGCGTCAGAGCATTCGGAGTCACCTAGTGCAG | 3160 fluorescence intensity (a.u.)
CTGCTCGGCGCCAAGAAGGAGAGAGCCGAGAGGGTGTGGACGGAGTCACCTAGTGCAG | 27700 fluorescence intensity (a.u.)
AAGCCTACTGCTGATGTTACCGGGATCCACATACCTCACACGGAGTCACCTAGTGCAG | 3510 fluorescence intensity (a.u.)
TTGTCGCGATGTGCCCCTTCTACGGGGTGCCACGTCACATCGGAGTCACCTAGTGCAG | 39500 fluorescence intensity (a.u.)
GCAGGCGTCGGTTTCGCGGCTGGCAGCGGCGGCTCGCTCACGGAGTCACCTAGTGCAG | 3200 fluorescence intensity (a.u.)
ACTCGTCTGATTATTTTCAGTTGCGTAACTCCCCTAATTACGGAGTCACCTAGTGCAG | 3670 fluorescence intensity (a.u.)
TAAGCTCCAAAGCCAGCTATAGCATGAGCTCCAAAATATACGGAGTCACCTAGTGCAG | 45700 fluorescence intensity (a.u.)
CTCAAATTTAGATAGTTTGTCAACACTGACATTGATTCTCCGGAGTCACCTAGTGCAG | 29000 fluorescence intensity (a.u.)

3 records picked at random from the list so far:
Sequence | binding signal
TAAGCTCCAAAGCCAGCTATAGCATGAGCTCCAAAATATACGGAGTCACCTAGTGCAG | 45700 fluorescence intensity (a.u.)
GTTTTATCGGTAACCATATTTGTATGGTAATTTCCGTTAACGGAGTCACCTAGTGCAG | 3230 fluorescence intensity (a.u.)
CTCAAATTTAGATAGTTTGTCAACACTGACATTGATTCTCCGGAGTCACCTAGTGCAG | 29000 fluorescence intensity (a.u.)
